This passage reports binding results from PMC7470938.

Results are given in words; binding and its absence hold for the method and conditions named. Binding calls can cover weak binding; strength is not graded here.

This assay concerns the target E. coli RecA(E38K) protein (E. coli). Put plainly: SPR; BIAcore T200, streptavidin chip; RecA(E38K) filaments assembled on immobilised biotinylated dsDNA; 0.65 uM pol IV injected for 220 s at 5 ul/min, then buffer; 20 C; 20 mM Tris-HCl pH 8.0, 10 mM KCl, 10 mM MgCl2, 0.005% surfactant P20, 0.5 mM dithiothreitol, 0.5 mM ATPgammaS; signal corrected with a flow cell without DNA and for the amount of immobilised RecA(E38K); both purified. Background: In SPR one partner is held on a chip, and binding of the other changes the refractive index at the surface.

B1: DNA polymerase IV (pol IV) (enzyme, UniProt Q47155 1-351)
chain: MRKIIHVDMDCFFAAVEMRDNPALRDIPIAIGGSRERRGVISTANYPARKFGVRSAMPTGMALKLCPHLTLLPGRFDAYKEASNHIREIFSRYTSRIEPLSLDEAYLDVTDSVHCHGSATLIAQEIRQTIFNELQLTASAGVAPVKFLAKIASDMNKPNGQFVITPAEVPAFLQTLPLAKIPGVGKVSAAKLEAMGLRTCGDVQKCDLVMLLKRFGKFGRILWERSQGIDERDVNSERLRKSVGVERTMAEDIHHWSECEAIIERLYPELERRLAKVKPDLLIARQGVKLKFDDFQQTTQEHVWPRLNKADLIATARKTWDERRGGRGVRLVGLHVTLLDPQMERQLVLGL
Turning to B1, the binding result is given as “binds”.
